{"source": "PubChem BioAssay", "note": "The list shows a part of the results. The main result of the screen is listed elsewhere. These columns were measured beside it and carry no call. Most of these compounds were active or inconclusive in the main read-out, so they are no random draw.", "data": [{"experiment": "Her2 expression decrease, cell viability multiplex – SKBR3 breast tumor cells, AlphaScreen, ATP viability, primary screen (AID 461);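 note: percent of carrier control wells set as 100% viability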", "settings": "SKBR3 Her2 protein level, 18-24 h, measured here: SKBR3 viability, ATP luminescence, at 10 µM", "units": {"viability": "%"}, "values": [{"smiles": "COc1ccc(-n2ncc3c(NCc4ccc5c(c4)OCO5)ncnc32)cc1", "viability": 92.5}, {"smiles": "CCCCCCCCCCCCCCCC(O)C(N)CO", "note": "(stereo unspecified)", "viability": 60}, {"smiles": "CCN(CC)CCNC(=O)c1ccc(N2CCCCC2)c(NS(=O)(=O)c2ccc(C)cc2)c1", "viability": 81}, {"smiles": "N#CC1=C(N)N(c2ccccc2)C(c2ccccc2)C1(C#N)C#N", "note": "(stereo unspecified)", "viability": 84.5}, {"smiles": "Cn1c(NC(=O)c2cccc(Cn3cc(Cl)cn3)c2)nc2ccccc21", "viability": 83}, {"smiles": "Cc1ccc2c(c1)C(N1CCCC1=O)CC(c1ccco1)N2", "note": "(stereo unspecified)", "viability": 108}, {"smiles": "CN1CCCN(C(c2ccccc2)c2ccc(Cl)cc2)CC1", "note": "(stereo unspecified)", "viability": 39}, {"smiles": "CCOC(=O)c1ccc(NC(=O)CCc2nc(-c3ccc(C)cc3)no2)cc1", "viability": 85}, {"smiles": "CC1=C(C(=O)OC2CCCCCC2)C(c2ccc(C)o2)C2=C(CCCC2=O)N1", "note": "(stereo unspecified)", "viability": 124}, {"smiles": "Cc1nc(SCC(=O)Nc2cc(C)on2)c2c3c(sc2n1)CCCC3", "viability": 66.5}, {"smiles": "O=C(C1CC1)N1CCc2cc(Br)cc(S(=O)(=O)N3CCOCC3)c21", "viability": 98}, {"smiles": "CCOC(=O)Nc1c(O)ccc2oc(C)c(-c3ccccc3)c12", "viability": 102}, {"smiles": "Cc1ccc(-c2nnc3c4ccccc4c(C)nn23)cc1S(=O)(=O)N1CCN(C)CC1", "viability": 85}, {"smiles": "CCCc1[nH]nc2c1C(c1cn[nH]c1-c1ccc(F)cc1)C(C#N)=C(N)O2", "note": "(stereo unspecified)", "viability": 98.5}, {"smiles": "CN(C)CCCN1c2ccccc2Sc2ccccc21", "viability": 66.5}, {"smiles": "Cn1nc(-c2ccc(N3CCCCC3)c(NC(=O)c3ccco3)c2)c2ccccc2c1=O", "viability": 107}, {"smiles": "Cc1ccc(-c2nnc3c4ccccc4c(C)nn23)cc1NC(=O)c1ccco1", "viability": 81.5}, {"smiles": "Cc1ccc(C(=O)Nc2ccc(Cl)cn2)cc1S(=O)(=O)N1CCOCC1", "viability": 90}, {"smiles": "c1cc(C(c2nnnn2C2CCCC2)N2CCOCC2)ccn1", "note": "(stereo unspecified)", "viability": 96.5}, {"smiles": "Cc1onc(-c2ccccc2)c1C(=O)Nc1sc2c(c1C(N)=O)CCC2", "viability": 88.5}, {"smiles": "CCN(CC)S(=O)(=O)c1ccc2[nH]cc(C(=O)NCCC3=CCCCC3)c(=O)c2c1", "viability": 138}, {"smiles": "CN(C)CCCN1c2ccccc2Sc2ccc(C(F)(F)F)cc21", "viability": 4.5}, {"smiles": "Cc1cccc(N2CCN(C(=O)C3CCCN(S(=O)(=O)c4c(C)noc4C)C3)CC2)c1C", "note": "(stereo unspecified)", "viability": 78}, {"smiles": "CN(C)CC(C(=O)c1ccccc1)c1ccccc1", "note": "(stereo unspecified)", "viability": 30.5}, {"smiles": "O=C(C1CCCN(S(=O)(=O)c2cccc3nonc23)C1)N1CCC(Cc2ccccc2)CC1", "note": "(stereo unspecified)", "viability": 103}, {"smiles": "C(=C\\c1ccccc1)/CSc1nnc(-c2ccccn2)n1Cc1ccco1", "viability": 84}, {"smiles": "CC(C)OC(=O)CCCCCN1C(=O)CSC1=S", "viability": 108}, {"smiles": "Cc1ccccc1-n1nnc2c(=O)oc3ccccc3c21", "viability": 99.5}, {"smiles": "Cc1cccc(NC(=O)c2ccc3ccccc3n2)n1", "viability": 91}, {"smiles": "O=C(Nc1nc2c(s1)CCCC2)C1COc2ccccc2O1", "note": "(stereo unspecified)", "viability": 103}, {"smiles": "CCOC(=O)c1cnc2c(OC)cccc2c1N1CCN(c2ccc(OC)cc2)CC1", "viability": 124}, {"smiles": "CCN(CC)c1ccc2c(c1)CCCN2", "viability": 86.5}, {"smiles": "CCN(CC)CCCNc1oc(-c2cccc(Cl)c2)nc1C#N", "viability": 113}, {"smiles": "O=C(Nc1cccc(NC(=O)c2ccco2)c1)c1ccc2c(c1)OCO2", "viability": 106}, {"smiles": "COc1cc(C2c3c(oc4c(C)cc(C)cc4c3=O)C(=O)N2Cc2cccnc2)ccc1O", "note": "(stereo unspecified)", "viability": 78}, {"smiles": "CNCCCC1c2ccccc2C=Cc2ccccc21", "viability": 82}]}]}
